Measured values as given in PMC2955532.
No constants are given. Whether binding was seen depends on the method and setting. Binding seen in cells or lysates may run through a third protein. Some binding calls cover weakened binding; strength is not graded here.

By UniProt entry, the sequences of proteins in these tests, tags left out. Residues count along the entry.
UniProt P21926: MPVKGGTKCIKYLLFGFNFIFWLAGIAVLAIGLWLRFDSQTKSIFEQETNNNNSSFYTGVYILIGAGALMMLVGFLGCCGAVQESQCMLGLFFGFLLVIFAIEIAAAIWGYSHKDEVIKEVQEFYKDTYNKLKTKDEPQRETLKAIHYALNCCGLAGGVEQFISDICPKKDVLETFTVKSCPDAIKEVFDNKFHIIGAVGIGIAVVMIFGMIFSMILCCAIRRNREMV
UniProt P05362, residues 28-532: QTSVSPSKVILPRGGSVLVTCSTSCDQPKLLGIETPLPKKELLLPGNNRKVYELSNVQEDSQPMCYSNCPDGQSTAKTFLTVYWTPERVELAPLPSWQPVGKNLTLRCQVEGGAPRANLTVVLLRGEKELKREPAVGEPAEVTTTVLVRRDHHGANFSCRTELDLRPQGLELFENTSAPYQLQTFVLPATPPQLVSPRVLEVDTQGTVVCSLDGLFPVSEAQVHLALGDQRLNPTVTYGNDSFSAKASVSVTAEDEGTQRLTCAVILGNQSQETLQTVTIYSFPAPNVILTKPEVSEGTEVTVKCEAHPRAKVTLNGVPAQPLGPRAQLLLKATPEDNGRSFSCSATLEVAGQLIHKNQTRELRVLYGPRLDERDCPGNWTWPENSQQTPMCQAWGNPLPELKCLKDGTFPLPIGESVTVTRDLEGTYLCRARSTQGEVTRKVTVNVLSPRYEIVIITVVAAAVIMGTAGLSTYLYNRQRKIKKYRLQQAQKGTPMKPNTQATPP
UniProt P05106, residues 27-788: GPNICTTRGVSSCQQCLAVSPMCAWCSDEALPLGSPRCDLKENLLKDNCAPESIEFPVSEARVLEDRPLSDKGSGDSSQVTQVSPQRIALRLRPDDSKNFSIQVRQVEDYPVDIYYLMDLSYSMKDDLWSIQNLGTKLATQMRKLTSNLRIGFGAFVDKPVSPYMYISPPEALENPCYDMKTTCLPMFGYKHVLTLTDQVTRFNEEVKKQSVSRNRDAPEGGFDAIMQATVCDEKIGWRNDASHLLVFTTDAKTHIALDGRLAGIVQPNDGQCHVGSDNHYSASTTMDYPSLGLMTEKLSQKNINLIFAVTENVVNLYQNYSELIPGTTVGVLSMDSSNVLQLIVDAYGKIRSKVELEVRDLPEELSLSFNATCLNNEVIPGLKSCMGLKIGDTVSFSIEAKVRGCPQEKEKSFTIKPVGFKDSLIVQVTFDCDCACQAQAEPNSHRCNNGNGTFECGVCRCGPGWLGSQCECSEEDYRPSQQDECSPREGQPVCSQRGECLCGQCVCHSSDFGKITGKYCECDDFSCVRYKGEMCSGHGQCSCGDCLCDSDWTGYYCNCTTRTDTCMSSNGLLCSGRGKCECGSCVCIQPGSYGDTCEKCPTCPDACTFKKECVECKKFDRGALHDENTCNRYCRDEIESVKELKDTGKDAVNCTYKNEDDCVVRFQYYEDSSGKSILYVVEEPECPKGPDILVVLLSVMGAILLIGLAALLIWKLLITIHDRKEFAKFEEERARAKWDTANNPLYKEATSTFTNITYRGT

Key:
Experiment in all cases: co-IP; confluent primary EEC monolayers lysed in Tris-buffered saline with 1% Brij 96, 1 mM CaCl2, 1 mM MgCl2 and protease inhibitors; 5 µg antibody coupled to protein-G-Sepharose; six washes with lysis buffer; non-reducing SDS-PAGE and Western blot; non-immune Ig as negative control
[1] = target: tetraspanin CD9 (human (endogenous in primary EEC)) (UniProt P21926)
[2] = target: ICAM-1 (human (endogenous in primary EEC)) (UniProt P05362)
[3] = target: β3 integrin (human (endogenous in primary EEC)) (UniProt P05106)

| binding [1] | binding [2] | binding [3] | Substance |
| --- | --- | --- | --- |
| binds | no binding | binds weakly | CD98 heavy chain (from UniProt P08195 1-529) |
| – | binds | – | tetraspanin CD9 (from UniProt P21926 1-228) |
